The source of these data is patent US20240401063, “Aptamer for DKK1 and Use Thereof” (APTACURE THERAPEUTICS LIMITED, published 2024).

For some of these results: A weaker result is weaker than the reference pair of the same experiment. For some of these results: Tags and fusion partners may be left off the protein sequences shown. For some of these results: Results from cells or extracts need not show a direct contact. For some of these results: A negative result means that nothing was seen under these conditions.

The target in series [1] is T1, DKK1 (Dickkopf-1), full-length (Homo sapiens) (UniProt O94907).
T1 sequence (limits assumed): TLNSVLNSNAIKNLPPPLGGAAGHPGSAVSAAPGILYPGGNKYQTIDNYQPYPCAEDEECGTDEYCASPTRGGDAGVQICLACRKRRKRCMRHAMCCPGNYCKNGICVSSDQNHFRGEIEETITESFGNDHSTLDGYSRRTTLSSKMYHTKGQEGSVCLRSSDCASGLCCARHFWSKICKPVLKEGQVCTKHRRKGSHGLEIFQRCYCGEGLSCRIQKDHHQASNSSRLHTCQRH
Nature of the series: ELONA. Particulars: 1 uM; especially lower absorbance; purified recombinant protein; protein details: His6; label: biotin; single-stranded DNA; variant of Apt5-1-38 (Aptdkk5s).

Series [2] deals with DKK1 expressed in Wnt reporter cells (UniProt O94907). The series is described as follows: activity in cells. Particulars: relieves DKK1 inhibition of Wnt at 1 uM; IC50 fit failed, weaker; protein in cells; protein details: DKK1 construct co-transfected in HEK293T; single-stranded DNA.
In series [3] the target is DKK1 full-length (pCS2-DKK1-His-flag, S4) (Homo sapiens) (UniProt O94907). The series is described as follows: pull-down. Particulars: 250 nM FAM-aptamer on DKK1-NTA beads, fluorescence microscopy, room temperature; protein in a lysate after overexpression; label: FAM; single-stranded DNA; variant of Aptdkk-5.
Series [4] concerns the target T2, DKK1-deltaC (pCS2-DKK1-deltaC-His-flag, S3) (Homo sapiens) (UniProt O94907).
T2 sequence: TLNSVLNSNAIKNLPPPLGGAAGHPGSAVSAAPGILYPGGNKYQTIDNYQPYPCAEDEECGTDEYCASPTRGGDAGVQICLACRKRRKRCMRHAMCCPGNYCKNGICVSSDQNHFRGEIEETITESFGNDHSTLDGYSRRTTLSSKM
The series is described as follows: pull-down. Particulars: almost no binding; C domain (178-266) implicated; protein in a lysate after overexpression; label: FAM; single-stranded DNA; variant of Aptdkk-5.

The target in series [5] is T3, DKK1-deltaL2&C (pCS2-DKK1-deltaL2&C-His-flag, S2) (Homo sapiens) (UniProt O94907).
T3 sequence: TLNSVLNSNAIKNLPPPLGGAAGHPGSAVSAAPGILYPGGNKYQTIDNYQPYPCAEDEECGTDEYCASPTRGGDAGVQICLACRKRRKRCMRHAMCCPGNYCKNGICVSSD
Nature of the series: pull-down. Particulars: almost no binding; C domain (178-266) implicated; protein in a lysate after overexpression; label: FAM; single-stranded DNA; variant of Aptdkk-5.

“CGTACGAAAGACGCTAGCTGGTGGTTGGGGTGGGTGGT [Aptdkk5s-3]”: the binding result in series [1] was “binds more weakly”.

With “CGTACGGTCGACGCTAGCATAGGTTGGGTAGGTTGGTTGCTTTTTTTGTCGCGGGATCCGAGCTCCACGTG [Aptdkk-19]”, in series [2], the “functional effect of the aptamer” value is listed as “active”.

As to “CGTACGGTCGACGCTAGCTGGTGGAAAGGGTGGGTGGT [Aptdkk5s-9]”, in series [1], the binding result is listed as “binds more weakly”.

In the case of “CGTACGGTCGACGCTAGCTGGTGGTTGGGGAAAGTGGT [Aptdkk5s-11]”, the binding result in series [1] is on record as “binds more weakly”.

On to “CGTACGGTCGACGCTAGCTGGTGGTTGGGGTGGGTGGT [FAM-aptdkk5s]”, for which the binding result was “binds” in series [3], “no binding” in series [4] and “no binding” in series [5].
